Source: PubChem BioAssay AID1487 (National Center for Advancing Translational Sciences (NCATS), 2009)
The other results are listed elsewhere or left out. Further columns of the screen follow, without active or inactive calls. Compounds called inactive in the main read-out are mostly missing here. The note in brackets gives the kind of curve behind each potency; many fits are weak.

Experiment: qHTS Assay for Modulators of Lamin A Splicing
Settings: HeLa LMNA splicing GFP/RFP minigene ratio, 48 h
Procedure, shortened: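 S3 HeLa stable clones carrying a lamin A-EGFP splicing minigene plus DsRed2 were seeded at 600 cells/well in Opti-MEM with 2% FBS, pin-dosed and incubated 48 h at 37°C. Acumen cytometry (488 nm) gave the GFP/RFP total-intensity ratio.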

[1] = measured here: RFP viability control channel
[2] = measured here: GFP splicing reporter channel

| Structure (SMILES) | AC50 [1] | AC50 [2] |
| --- | --- | --- |
| COc1cccc(C(=O)NCC(c2ccc(N(C)C)cc2)N2CCOCC2)c1OC (stereo not given) | 2.24 µM [rising, full curve, poor fit] | – |
| COc1ccc(N2CCC(CNC(=O)Nc3ccc(Cl)cc3)C2)cc1 (stereo not given) | – | 5.01 µM [falling, partial curve, poor fit] |
| CCc1nc2sc3c(c2c(=O)n1N)CC(C)(C)OC3 | 1.78 µM [falling, partial curve] | – |
| O=C(c1ccc2c(Cl)c3c(nc2c1)CCCC3)N1CCC(N2CCCCC2)CC1 | 17.8 µM [rising, single point] | – |
| NS(=O)(=O)Cc1noc2ccccc12 | 0.891 µM [falling, single point] | 17.8 µM [falling, single point] |
| NNc1nc2c(-c3ccc(F)cc3)nnn2c2ccccc12 | – | 28.2 µM [falling, partial curve] |
| Cc1nn(C)c2c1c(-c1ccccc1)cc(=O)n2CC(=O)NC(C)(C)C | 0.1 µM [falling, full curve, poor fit] | 7.94 µM [falling, partial curve, poor fit] |
| CCOC(=O)/C(N=Nc1c(Br)cc(Br)cc1Br)=C(\C)O | 35.5 µM [falling, single point] | 35.5 µM [falling, single point] |
| c1ccc(CCNc2ccnc3cc4ccccc4cc23)cc1 | 3.16 µM [falling, single point] | 15.8 µM [falling, single point] |
| COc1cc(/C=C(\C#N)c2ccccn2)ccc1OCC(=O)Nc1ccc(Br)cc1 | 35.5 µM [falling, single point] | 17.8 µM [falling, single point] |
| CCOC(=O)c1cnc(-n2nc(C)cc2C)nc1NC(C)c1ccccc1 (stereo not given) | 12.6 µM [rising, partial curve] | – |
| CCC(Sc1nc(C)cc(=O)[nH]1)C(=O)Nc1sc2c(c1C#N)CCCC2 (stereo not given) | 17.8 µM [rising, single point] | – |
| C=CCn1c(SCC(=O)N2CCN(c3ccc(F)cc3)CC2)nnc1-c1ccco1 | 17.8 µM [rising, partial curve] | 14.1 µM [rising, single point] |
| CN(C)CCN(Cc1ccc(Cl)cc1)c1ccccn1 | – | 10 µM [falling, partial curve, poor fit] |
| O=C(c1cccc2ccccc12)C1CCCN(C(=O)CCN2CCCO2)C1 (stereo not given) | 10 µM [falling, partial curve, poor fit] | 28.2 µM [falling, partial curve] |
| O=C(Nc1ncc(Cc2ccc(SC(F)F)cc2)s1)c1ccc(OC(F)F)cc1 | 0.631 µM [rising, full curve] | 0.631 µM [rising, full curve] |
| CC(C)Nc1ncnc2ccc(Br)cc12 | 7.94 µM [rising, partial curve] | 3.55 µM [rising, full curve] |

| Structure (SMILES) | AC50 [1] | AC50 [2] |
| --- | --- | --- |
| CCCC(=O)N1CCN(c2ccc([N+](=O)[O-])cc2Cl)CC1 | – | 0.562 µM [rising, full curve] |
| CCC(=O)Nc1cccc(-c2cn3c(C)csc3n2)c1 | – | 6.31 µM [rising, single point] |
| COc1ccc2[nH]cc(CCNc3nc(-c4cccc(NS(C)(=O)=O)c4)nc4ccccc34)c2c1 | 35.5 µM [falling, single point] | 35.5 µM [falling, single point] |
| CSc1nc2ccccc2cc1/C=C(\C#N)c1ccccc1 | 5.01 µM [falling, partial curve] | 5.01 µM [falling, partial curve] |
| Clc1ccc(-c2ccc(/C=N/Nc3cc(N4CCOCC4)nc(N4CCOCC4)n3)o2)cc1 | 31.6 µM [rising, single point] | – |
| Cc1ccc(-c2cc(C(=O)N(C)Cc3cnn(C)c3C)c3cc(Br)ccc3n2)cc1 | 22.4 µM [rising, partial curve] | 10 µM [rising, partial curve, poor fit] |
| COc1ccc(O[C@H]2C=C[C@@H](c3ccccc3)O[C@@H]2CO/N=C(\C)CCN2CCCCc3nc(C)c(C)cc32)cc1 | 22.4 µM [rising, partial curve] | 12.6 µM [rising, partial curve] |
| C/C(=N\NC(=O)c1cccc(N/N=C(\C)c2ccncc2)c1)c1ccncc1 | 10 µM [falling, partial curve] | – |
| COc1ccc(NC(=S)N(Cc2ccc(N(C)C)cc2)Cc2ccco2)cc1 | 12.6 µM [rising, partial curve] | – |
| Clc1cccc(Cl)c1COn1nnc2ccccc21 | – | 35.5 µM [rising, single point] |
| C[C@@H](CNC1CCCCC1)OC(=O)c1ccccc1 | 12.6 µM [falling, single point] | 0.00224 µM [falling, full curve, poor fit] |
| O=C(NCc1ccc(F)cc1)C1CCN(S(=O)(=O)c2ccc3c(c2)OCCCO3)CC1 | 11.2 µM [rising, partial curve, poor fit] | – |
| O=C(c1ccc2c(=O)n3c(nc2c1)CCCCC3)N1CCN(C(c2ccccc2)c2ccccc2)CC1 | 35.5 µM [rising, single point] | – |
| O=C(Nc1ccccc1C(=O)OCc1cc(=O)n2ccsc2n1)c1cccc(F)c1 | 35.5 µM [falling, partial curve, poor fit] | 35.5 µM [falling, single point] |
| O=C(Nc1cc(S(=O)(=O)Nc2ccc(Cl)cc2)ccc1N1CCCCC1)c1ccc(F)cc1Cl | 35.5 µM [rising, single point] | – |
| COc1ccc2c(c1)C(=O)N(CCc1ccc(S(=O)(=O)NC(=O)NC3CCCCC3)cc1)C(=O)C2(C)C | 1.41 µM [falling, full curve] | – |
| COC(=O)C(C)N1C(=O)S/C(=C/c2cc(C)n(C(C)C)c2C)C1=O (stereo not given) | 17.8 µM [rising, single point] | 12.6 µM [rising, single point] |
